The record followed here is doi:10.1101/2021.01.04.425182.

The chains behind the UniProt entries cited, without tags or fusion partners. Residues count along the entry.
UniProt P14210, residues 32-728: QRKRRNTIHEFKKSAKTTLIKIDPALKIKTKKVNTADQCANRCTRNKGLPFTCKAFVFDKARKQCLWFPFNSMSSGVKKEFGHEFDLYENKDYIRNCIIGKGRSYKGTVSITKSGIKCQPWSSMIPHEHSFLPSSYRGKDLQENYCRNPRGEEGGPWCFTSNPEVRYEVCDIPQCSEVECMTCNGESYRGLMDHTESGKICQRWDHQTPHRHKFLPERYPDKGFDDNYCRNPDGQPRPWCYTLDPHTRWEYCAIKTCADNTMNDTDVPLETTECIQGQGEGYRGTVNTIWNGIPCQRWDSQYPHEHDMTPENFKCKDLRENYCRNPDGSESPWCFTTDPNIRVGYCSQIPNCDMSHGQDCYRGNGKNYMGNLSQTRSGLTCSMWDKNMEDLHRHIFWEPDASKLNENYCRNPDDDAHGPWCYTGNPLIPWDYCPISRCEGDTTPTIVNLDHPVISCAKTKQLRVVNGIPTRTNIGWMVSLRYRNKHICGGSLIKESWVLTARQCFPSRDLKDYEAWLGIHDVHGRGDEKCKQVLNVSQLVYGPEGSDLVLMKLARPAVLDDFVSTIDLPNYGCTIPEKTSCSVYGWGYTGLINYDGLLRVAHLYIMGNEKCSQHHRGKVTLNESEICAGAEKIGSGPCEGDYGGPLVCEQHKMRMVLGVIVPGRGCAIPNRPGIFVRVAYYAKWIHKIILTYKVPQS

This assay concerns the target T1, prolargin (PRELP), recombinant human (human) (UniProt P51888).
T1 sequence: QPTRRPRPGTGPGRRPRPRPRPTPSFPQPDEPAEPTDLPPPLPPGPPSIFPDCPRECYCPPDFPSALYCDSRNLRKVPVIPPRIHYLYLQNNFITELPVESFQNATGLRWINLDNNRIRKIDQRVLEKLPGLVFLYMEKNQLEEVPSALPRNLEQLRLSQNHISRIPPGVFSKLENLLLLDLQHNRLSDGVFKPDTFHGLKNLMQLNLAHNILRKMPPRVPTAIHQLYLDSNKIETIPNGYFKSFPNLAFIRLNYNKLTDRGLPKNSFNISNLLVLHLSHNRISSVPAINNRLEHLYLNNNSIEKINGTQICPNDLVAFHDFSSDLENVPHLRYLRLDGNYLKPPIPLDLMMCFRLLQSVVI
The experiment in a line: SPR. Background: In SPR one partner is held on a chip, and binding of the other changes the refractive index at the surface.

No constants are given. Whether binding was seen depends on the method and setting. Some results given as binding are weak or reduced against the parent protein; the word gives no strength.

On to “HGF (from UniProt P14210 32-728) (ligand)”, for which the binding result is given as “binds”.
